Values quoted from earlier work, collected in patent US6509348B1, “Combination of an ADP-receptor blocking antiplatelet drug and a thromboxane A2 receptor antagonist and a method for inhibiting thrombus formation employing such combination” (Bristol-Myers Squibb Company, priority 1998, dated 2003).
Some results were stated once for a whole list of compounds, not compound by compound.

System: stasis-induced vena cava thrombosis
Conditions: doses giving potent inhibition; cited from earlier work

Structure (SMILES): CC(=O)CC(c1ccccc1)c1c(O)c2ccccc2oc1=O (stereo not shown) [warfarin]
- inhibition of stasis-induced vena cava thrombosis: ≥ 75%
